Experimental data from publication PMC4081081 (2014).
For at least one entry, the source does not settle the construct or the ends of the probe. At least one verdict rests on a figure or table, not on a statement of the authors. Tags and fusion partners may be left off the protein sequences shown.

Molecular target: T1, G4 resolvase 1 (G4R1) (UniProt Q9H2U1)
T1 sequence (looked up, limits assumed): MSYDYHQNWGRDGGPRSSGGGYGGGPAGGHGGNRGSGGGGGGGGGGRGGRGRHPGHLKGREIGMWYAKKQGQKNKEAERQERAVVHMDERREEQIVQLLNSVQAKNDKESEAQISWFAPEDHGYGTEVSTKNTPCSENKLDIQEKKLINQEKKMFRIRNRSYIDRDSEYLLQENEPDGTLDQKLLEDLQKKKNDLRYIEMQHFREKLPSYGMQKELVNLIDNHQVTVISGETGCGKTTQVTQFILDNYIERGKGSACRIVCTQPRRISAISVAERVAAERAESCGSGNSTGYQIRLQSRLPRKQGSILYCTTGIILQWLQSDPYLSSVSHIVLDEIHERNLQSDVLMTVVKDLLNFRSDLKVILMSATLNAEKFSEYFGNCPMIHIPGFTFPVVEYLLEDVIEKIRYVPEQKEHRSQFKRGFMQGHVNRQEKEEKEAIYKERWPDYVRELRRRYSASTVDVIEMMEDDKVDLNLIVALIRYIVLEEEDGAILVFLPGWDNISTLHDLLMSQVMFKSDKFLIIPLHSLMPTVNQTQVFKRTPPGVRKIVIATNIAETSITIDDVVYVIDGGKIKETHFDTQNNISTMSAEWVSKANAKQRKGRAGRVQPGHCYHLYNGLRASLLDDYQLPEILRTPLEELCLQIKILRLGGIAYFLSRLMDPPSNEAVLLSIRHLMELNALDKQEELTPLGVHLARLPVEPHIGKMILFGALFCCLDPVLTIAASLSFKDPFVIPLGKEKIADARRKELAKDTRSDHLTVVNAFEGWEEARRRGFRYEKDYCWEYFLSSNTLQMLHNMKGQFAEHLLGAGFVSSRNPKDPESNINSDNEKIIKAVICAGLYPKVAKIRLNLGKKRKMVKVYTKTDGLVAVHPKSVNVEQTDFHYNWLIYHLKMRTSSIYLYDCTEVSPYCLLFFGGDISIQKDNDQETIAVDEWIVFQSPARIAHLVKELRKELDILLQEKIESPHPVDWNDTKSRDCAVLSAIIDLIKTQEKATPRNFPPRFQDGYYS
Test: pull-down
Settings: streptavidin beads, 37 C, 0.5 mM MgCl2, 50 mM NaCl, ATP-dependent elution (purification step); 5' biotin-dT (printed as /5BiodT/, not included in S35); recombinant protein; protein details: His6; label: 5' biotin; folded or branched DNA

GGCCGCTTATGGGGAGGGTGGGGAGGGTGGGGAAGGTGGGGAGGAGACTCA [Biotin c-Myc 51mer]
binding result: binds
